Experimental data as given in publication PMC5566547, “Nei-like 1 (NEIL1) excises 5-carboxylcytosine directly and stimulates TDG-mediated 5-formyl and 5-carboxylcytosine excision”.
Results are given in words; binding and its absence hold for the method and conditions named.

Sequences of proteins named here, by UniProt entry; tags and fusion partners are left off. A change or cut given only in a name is not applied to a line headed by its entry. A line that says so, or that is headed by a name, gives the form on record, which may keep a tag or linker.
UniProt Q96FI4: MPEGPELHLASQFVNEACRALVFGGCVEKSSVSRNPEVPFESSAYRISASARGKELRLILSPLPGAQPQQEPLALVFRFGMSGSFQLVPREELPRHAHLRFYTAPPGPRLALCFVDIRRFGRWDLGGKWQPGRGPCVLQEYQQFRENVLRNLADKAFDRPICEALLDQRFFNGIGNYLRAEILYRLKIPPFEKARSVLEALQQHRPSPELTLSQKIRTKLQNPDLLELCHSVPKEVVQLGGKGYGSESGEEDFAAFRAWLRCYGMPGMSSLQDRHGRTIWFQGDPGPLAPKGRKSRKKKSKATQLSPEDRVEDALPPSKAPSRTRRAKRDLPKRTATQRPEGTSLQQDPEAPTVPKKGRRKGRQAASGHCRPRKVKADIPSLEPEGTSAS
NEIL1 E3Q (human Nei-like 1, E3Q variant, C-terminal hexahistidine tag) (Q96FI4, form named): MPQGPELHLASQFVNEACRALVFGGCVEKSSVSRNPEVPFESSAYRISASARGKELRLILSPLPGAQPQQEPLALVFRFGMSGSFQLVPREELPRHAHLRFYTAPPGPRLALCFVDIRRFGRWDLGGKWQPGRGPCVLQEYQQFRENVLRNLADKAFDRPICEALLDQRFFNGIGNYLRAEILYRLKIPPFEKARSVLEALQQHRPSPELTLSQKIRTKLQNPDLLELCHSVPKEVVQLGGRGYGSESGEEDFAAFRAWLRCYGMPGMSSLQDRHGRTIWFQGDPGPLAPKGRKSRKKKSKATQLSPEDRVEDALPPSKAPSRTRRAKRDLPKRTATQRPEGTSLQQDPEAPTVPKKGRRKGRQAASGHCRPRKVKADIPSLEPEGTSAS

Molecular target: NEIL1 E3Q (human Nei-like 1, E3Q variant, C-terminal hexahistidine tag) (human) (UniProt Q96FI4)
Assay: SEC; Superdex 200 10/300 GL; separate injections of NEIL1 E3Q or TDG alone (5nmoles in 0.5 ml); SEC buffer 70 mM MOPS pH7.5, 5% glycerol, 1 mM EDTA, 1 mM DTT, 100 mM KCl; column calibrated with mass standards; both purified

For “NEIL1 E3Q (human Nei-like 1, E3Q variant, C-terminal hexahistidine tag) (from UniProt Q96FI4 1-390) (enzyme)”, the binding was “no binding (tested: 5nmoles in 0.5 ml total volume)”.
